No constants are given. Whether binding was seen depends on the method and setting. Binding seen in cells or lysates may run through a third protein. Some binding calls cover weakened binding; strength is not graded here.

The chains behind the UniProt entries cited, without tags or fusion partners.
UniProt P78347: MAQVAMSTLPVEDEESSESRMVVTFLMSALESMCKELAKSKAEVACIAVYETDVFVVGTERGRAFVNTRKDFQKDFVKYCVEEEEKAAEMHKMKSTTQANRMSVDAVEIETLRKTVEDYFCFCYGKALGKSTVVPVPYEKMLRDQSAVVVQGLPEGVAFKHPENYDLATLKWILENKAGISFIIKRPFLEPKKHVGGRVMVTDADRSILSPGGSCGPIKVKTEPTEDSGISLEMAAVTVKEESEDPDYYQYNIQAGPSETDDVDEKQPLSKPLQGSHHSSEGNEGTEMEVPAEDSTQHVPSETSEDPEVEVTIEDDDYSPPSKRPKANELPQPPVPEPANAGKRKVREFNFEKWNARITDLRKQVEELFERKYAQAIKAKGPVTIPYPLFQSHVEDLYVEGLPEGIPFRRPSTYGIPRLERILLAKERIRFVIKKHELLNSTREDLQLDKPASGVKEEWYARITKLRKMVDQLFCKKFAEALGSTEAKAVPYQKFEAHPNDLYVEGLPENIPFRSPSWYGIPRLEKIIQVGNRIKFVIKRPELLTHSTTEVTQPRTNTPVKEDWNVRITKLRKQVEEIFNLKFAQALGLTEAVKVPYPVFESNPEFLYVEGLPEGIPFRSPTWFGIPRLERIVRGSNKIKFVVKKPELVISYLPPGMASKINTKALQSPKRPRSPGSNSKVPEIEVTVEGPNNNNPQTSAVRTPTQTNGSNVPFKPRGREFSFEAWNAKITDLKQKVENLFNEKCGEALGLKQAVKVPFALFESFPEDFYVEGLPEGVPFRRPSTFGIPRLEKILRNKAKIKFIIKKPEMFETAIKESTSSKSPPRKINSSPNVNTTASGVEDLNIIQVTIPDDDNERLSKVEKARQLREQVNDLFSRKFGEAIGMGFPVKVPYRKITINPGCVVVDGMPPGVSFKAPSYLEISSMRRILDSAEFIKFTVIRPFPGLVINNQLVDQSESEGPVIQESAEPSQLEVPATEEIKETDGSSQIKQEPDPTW
UniProt Q00987: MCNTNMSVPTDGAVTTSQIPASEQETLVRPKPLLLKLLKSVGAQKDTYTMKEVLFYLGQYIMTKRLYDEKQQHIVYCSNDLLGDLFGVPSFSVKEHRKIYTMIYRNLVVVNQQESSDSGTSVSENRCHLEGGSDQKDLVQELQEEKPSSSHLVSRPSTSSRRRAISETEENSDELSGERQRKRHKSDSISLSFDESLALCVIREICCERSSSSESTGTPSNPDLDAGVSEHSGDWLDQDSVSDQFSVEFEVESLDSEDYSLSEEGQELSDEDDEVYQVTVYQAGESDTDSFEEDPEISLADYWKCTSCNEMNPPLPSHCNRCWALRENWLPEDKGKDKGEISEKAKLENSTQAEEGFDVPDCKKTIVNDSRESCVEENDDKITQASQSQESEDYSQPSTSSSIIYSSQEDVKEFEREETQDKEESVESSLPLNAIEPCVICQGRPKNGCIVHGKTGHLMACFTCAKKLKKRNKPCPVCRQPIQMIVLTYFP

The target in experiment [1] is endogenous TFII-I (H1299 cells) (human (endogenous in H1299)) (UniProt P78347). The experiment in a line: co-IP; endogenous proteins, eight confluent 100-mm dishes of H1299 cells; Triton X-100 lysis buffer; IP 2 h at 4°C with anti-Mdm2 (HDM2-323) or mouse anti-TFII-I, protein G-Sepharose; anti-tubulin α as negative control; Western blot. On the technique in general: A western blot detects proteins with antibodies after separation by electrophoresis.

The target in experiment [2] is endogenous Mdm2 (H1299 cells) (human (endogenous in H1299)) (UniProt Q00987). The experiment is described as above.
Experiment [3] concerns the target wild-type human Mdm2 (ectopically over-expressed in HEK293T cells) (human) (UniProt Q00987). The experiment in a line: co-IP; HEK293T cells transfected with Mdm2, MG132 15 uM for 4 h; 1% Triton X-100, 150 mM NaCl, 50 mM Tris pH 8.0 lysate; IP with anti-Mdm2 Ab-1 overnight at 4°C, protein G-Sepharose; Western blot for TFII-I.

In the case of “endogenous Mdm2 (H1299 cells) (from UniProt Q00987 1-491)”, the binding entry in experiment [1] is recorded as “binds”.
As for “endogenous TFII-I (H1299 cells) (from UniProt P78347 1-998)”, the binding result in experiment [2] is recorded as “binds”.
Regarding “endogenous TFII-I protein (HEK293T cells) (from UniProt P78347 1-998)”, the binding result in experiment [3] was “binds”.

For the origin of these results see article PMC4676684.
